Record: PubChem BioAssay AID1224830 (NIAID, 2016)
The whole screen tested about 18,000 reagents; shown is a random part of them. About 2,900 of all reagents (16%) were called active. 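Calls are made per well; low scores hint the gene aids the LPS response, high scores that it dampens it.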 Repeated entries: four replicate wells of each siRNA pool.

Aim: 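Host factors that control LPS-induced TNF expression in human macrophages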 (primary screen)
Cell system: human THP-1 monocytic leukaemia cells, TNF dual-luciferase reporter clone, PMA-differentiated to macrophage-like cells
Reagents: siRNA pool against human genes, 50 nM
Time to read-out: LPS for 4 h, given about 3 days after siRNA transfection
Treatment: bacterial LPS (TLR4 ligand), 10 ng/ml
Read-out: 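TNF firefly reporter luminescence divided by renilla, normalised to the plate median, then turned into a robust z-score for each replicate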
Reading the numbers: TNF reporter robust z-score: higher = stronger TNF reporter response to LPS
Rule for the call: 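Each well counts as active if its z-score is over 2.8 or under -1.5; controls are left without a call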

gene | PubChem SID | TNF reporter robust z-score | outcome
FASTKD5 (FASTK mitochondrial RNA regulator 5) | SID315458715 | -0.89 | inactive
FASTKD5 (FASTK mitochondrial RNA regulator 5) | SID315458715 | 0.29 | inactive
FASTKD5 (FASTK mitochondrial RNA regulator 5) | SID315458715 | -0.48 | inactive
FASTKD5 (FASTK mitochondrial RNA regulator 5) | SID315458715 | -1.36 | inactive
MOSPD2 (motile sperm domain containing 2) | SID315462670 | 0.64 | inactive
MOSPD2 (motile sperm domain containing 2) | SID315462670 | 1.65 | inactive
MOSPD2 (motile sperm domain containing 2) | SID315462670 | 1.56 | inactive
SAMTOR (S-adenosylmethionine sensor upstream of mTORC1) | SID315462594 | -1.7 | active
SAMTOR (S-adenosylmethionine sensor upstream of mTORC1) | SID315462594 | -1.38 | inactive
SAMTOR (S-adenosylmethionine sensor upstream of mTORC1) | SID315462594 | -1.56 | active
SAMTOR (S-adenosylmethionine sensor upstream of mTORC1) | SID315462594 | -1.59 | active
NAPB (NSF attachment protein beta) | SID315458763 | -1.46 | inactive
NAPB (NSF attachment protein beta) | SID315458763 | -1.23 | inactive
NAPB (NSF attachment protein beta) | SID315458763 | -1.2 | inactive
NAPB (NSF attachment protein beta) | SID315458763 | -1.14 | inactive
RS1 (retinoschisin 1) | SID315451254 | -0.64 | inactive
RS1 (retinoschisin 1) | SID315451254 | -0.27 | inactive
RS1 (retinoschisin 1) | SID315451254 | -0.45 | inactive
RS1 (retinoschisin 1) | SID315451254 | -0.59 | inactive
SLC9B2 | SID315461941 | -0.78 | inactive
SLC9B2 | SID315461941 | -0.16 | inactive
SLC9B2 | SID315461941 | -0.58 | inactive
SLC9B2 | SID315461941 | -0.46 | inactive
IFI35 (interferon induced protein 35) | SID315449402 | 0.5 | inactive
IFI35 (interferon induced protein 35) | SID315449402 | 0.44 | inactive
IFI35 (interferon induced protein 35) | SID315449402 | 0.4 | inactive
IFI35 (interferon induced protein 35) | SID315449402 | -0.11 | inactive
ZNF18 (zinc finger protein 18) | SID315452201 | 1.54 | inactive
ZNF18 (zinc finger protein 18) | SID315452201 | -0.72 | inactive
ZNF18 (zinc finger protein 18) | SID315452201 | 0.56 | inactive
ZNF18 (zinc finger protein 18) | SID315452201 | -0.61 | inactive
MRPL10 (mitochondrial ribosomal protein L10) | SID315461648 | -0.5 | inactive
MRPL10 (mitochondrial ribosomal protein L10) | SID315461648 | -0.32 | inactive
MRPL10 (mitochondrial ribosomal protein L10) | SID315461648 | 0.41 | inactive
MRPL10 (mitochondrial ribosomal protein L10) | SID315461648 | 0.33 | inactive
LOXL3 (lysyl oxidase like 3) | SID315460471 | -0.83 | inactive
LOXL3 (lysyl oxidase like 3) | SID315460471 | 0.53 | inactive
LOXL3 (lysyl oxidase like 3) | SID315460471 | -0.56 | inactive
LOXL3 (lysyl oxidase like 3) | SID315460471 | 0.54 | inactive
PLAC9 (placenta associated 9) | SID315463155 | -0.92 | inactive
PLAC9 (placenta associated 9) | SID315463155 | -1.3 | inactive
PLAC9 (placenta associated 9) | SID315463155 | -0.26 | inactive
PLAC9 (placenta associated 9) | SID315463155 | -1.26 | inactive
DISP2 (dispatched RND transporter family member 2) | SID315460702 | -0.49 | inactive
DISP2 (dispatched RND transporter family member 2) | SID315460702 | 0.05 | inactive
DISP2 (dispatched RND transporter family member 2) | SID315460702 | -0.72 | inactive
DISP2 (dispatched RND transporter family member 2) | SID315460702 | -0.64 | inactive
SND1 (staphylococcal nuclease and tudor domain containing 1) | SID315455895 | -0.23 | inactive
SND1 (staphylococcal nuclease and tudor domain containing 1) | SID315455895 | 0.1 | inactive
SND1 (staphylococcal nuclease and tudor domain containing 1) | SID315455895 | 0.01 | inactive
MTMR1 (myotubularin related protein 1) | SID315452811 | -0.23 | inactive
MTMR1 (myotubularin related protein 1) | SID315452811 | 2.51 | inactive
MTMR1 (myotubularin related protein 1) | SID315452811 | 0.68 | inactive
MTMR1 (myotubularin related protein 1) | SID315452811 | 0.64 | inactive
CATIP (ciliogenesis associated TTC17 interacting protein) | SID315464361 | -0.54 | inactive
CATIP (ciliogenesis associated TTC17 interacting protein) | SID315464361 | 0.23 | inactive
CATIP (ciliogenesis associated TTC17 interacting protein) | SID315464361 | -0.66 | inactive
MPP2 (MAGUK p55 scaffold protein 2) | SID315450029 | -0.71 | inactive
MPP2 (MAGUK p55 scaffold protein 2) | SID315450029 | 0.5 | inactive
MPP2 (MAGUK p55 scaffold protein 2) | SID315450029 | 0.75 | inactive
MPP2 (MAGUK p55 scaffold protein 2) | SID315450029 | 0.97 | inactive
PRSS1 (serine protease 1) | SID315450857 | 0.02 | inactive
PRSS1 (serine protease 1) | SID315450857 | 0.37 | inactive
PRSS1 (serine protease 1) | SID315450857 | 0.25 | inactive
PRSS1 (serine protease 1) | SID315450857 | 0.66 | inactive
IFNAR1 (interferon alpha and beta receptor subunit 1) | SID315449420 | -0.83 | inactive
IFNAR1 (interferon alpha and beta receptor subunit 1) | SID315449420 | 0.55 | inactive
IFNAR1 (interferon alpha and beta receptor subunit 1) | SID315449420 | 0.81 | inactive
IFNAR1 (interferon alpha and beta receptor subunit 1) | SID315449420 | 1.02 | inactive
XAF1 (XIAP associated factor 1) | SID315457137 | 0.19 | inactive
XAF1 (XIAP associated factor 1) | SID315457137 | 0.73 | inactive
XAF1 (XIAP associated factor 1) | SID315457137 | 0.94 | inactive
XAF1 (XIAP associated factor 1) | SID315457137 | 1.47 | inactive
ENPEP (glutamyl aminopeptidase) | SID315448515 | 0.09 | inactive
ENPEP (glutamyl aminopeptidase) | SID315448515 | -0.1 | inactive
ENPEP (glutamyl aminopeptidase) | SID315448515 | -0.68 | inactive
ENPEP (glutamyl aminopeptidase) | SID315448515 | 0.83 | inactive
